Laboratory results reported in PubChem BioAssay AID624297 (National Center for Advancing Translational Sciences (NCATS), 2012).
Among all 340,000 compounds or so, about 6,200 (1.8%) were called active. The inconclusive results got no clear call from the source; some entries with a clear call stand among them for comparison. Calls come from the whole dose curve; as a rule, active = well fitted activation curve with a large enough effect; inconclusive = small, poorly fitted or top-dose-only effect; inactive = no such curve, though single readings can be large or run the other way. A potency beside an inconclusive call is a rough fit, not a confirmed value.

assay: A quantitative high throughput screen for small molecules that induce DNA re-replication in SW480 colon adenocarcinoma cells.; note: nearly all actives have a fitted effect of over 55% in size; details: Hoechst DNA content imaging, 48 h; series mostly up to 46.1 µM
Method in brief: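 Image-based DNA-content assay: after two days of treatment, nuclei were labelled with the DNA dye Hoechst and imaged, and hits were compounds raising the count of nuclei showing high fluorescence intensity.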
Potency is the fitted concentration of half-maximal effect.

SMILES | Potency
CN1CCc2c(sc3nc(SCC(N)=O)n(-c4ccc(Cl)cc4)c(=O)c23)C1 | inconclusive: 23.1 µM [activator, partial curve, poor fit]
Cc1ccc2nc(CSc3nc(C)nc4c3oc3ccccc34)[nH]c2c1 | inconclusive: 29.1 µM [activator, single point]
COc1ccc(NC(=O)N(C)C[C@H]2Oc3ccc(NC(=O)c4ccncc4)cc3C(=O)N([C@H](C)CO)C[C@@H]2C)cc1 | inactive
CCCN(Cc1cc2cc(C)ccc2[nH]c1=O)C(=O)c1ccccn1 | inconclusive: 18.4 µM [activator, single point]
Cc1cccc(C(=O)NCCc2nnc(SCC(=O)Nc3cccc(C(=O)O)c3)n2C)c1 | inconclusive: 29.1 µM [activator, single point]
Cc1ccc2c(c1C)NC(=O)C21N2CCCC2C(C(=O)c2ccc3ccccc3c2)C12C(=O)Nc1ccccc12 (stereo unspecified) | inconclusive: 29.1 µM [activator, single point]
CC(=O)C1=C(C)N(c2ccccc2)C(=O)C1(NS(=O)(=O)c1ccc(N)cc1)C(F)(F)F (stereo unspecified) | inconclusive: 2.31 µM [activator, full curve]
Cc1cccc(NC(=O)N2CCCC2C(=O)Nc2ccccc2)c1 (stereo unspecified) | inconclusive: 6.51 µM [activator, single point]
CC1(C)CC(=O)C(C(C2=C(O)CC(C)(C)CC2=O)c2ccc(Br)s2)C(=O)C1 (stereo unspecified) | inconclusive: 29.1 µM [activator, single point]
COc1ccc2cc(C(=O)C3CCCN(C(=O)CCc4ccccn4)C3)ccc2c1 (stereo unspecified) | inconclusive: 0.82 µM [activator, full curve, poor fit]
COc1ccc2[nH]c(=O)c(CN(Cc3cccs3)S(=O)(=O)c3cccc4nsnc34)cc2c1 | inconclusive: 11.6 µM [activator, partial curve, poor fit]
CC(=O)N1CCN(c2ccc(NC(=O)c3ccco3)cc2)CC1 | inactive
COCC(=O)Nc1ccc(N2CCOCC2)c(S(=O)(=O)Nc2ccc(OC)cc2)c1 | inconclusive: 29.1 µM [activator, single point]
COc1ccc(C2C(C#N)=C(N)N(c3ccccc3)C3=C2C(=O)CCC3)cc1Cn1cc([N+](=O)[O-])cn1 (stereo unspecified) | inconclusive: 16.4 µM [activator, partial curve, poor fit]
COc1ccc(OCc2nnc(SCC(=O)c3ccccc3)o2)cc1 | inconclusive: 29.1 µM [activator, single point]
Cc1ccc(C2(O)C(=O)c3ccccc3C2=O)c(O)c1C | inconclusive: 0.0058 µM [activator, full curve, poor fit]
O=C(CCNC(=O)OCC1c2ccccc2-c2ccccc21)NOCc1ccccc1 | inconclusive: 29.1 µM [activator, single point]
CCN(CC)c1ccc(NC(=O)/C=C\c2ccccc2Cl)cc1 | inconclusive: 29.1 µM [activator, single point]
Cc1nn(-c2ccccc2)c(Cl)c1/C=N/O | inconclusive: 2.06 µM [activator, full curve, poor fit]
CN(C(=O)CCc1ccccc1F)C1CCCN(Cc2ccccc2F)C1 (stereo unspecified) | inconclusive: 29.1 µM [activator, single point]
COc1ccc(S(=O)(=O)N(C)C)cc1NC(=O)CSc1nnc(-c2cccnc2)o1 | inconclusive: 1.16 µM [activator, single point]

SMILES | Potency
C[C@H](CO)N1C[C@H](C)[C@@H](CN(C)C(=O)Nc2ccc(C(F)(F)F)cc2)Oc2c(NS(=O)(=O)c3cccs3)cccc2C1=O | inactive
Cc1cccc(N=C2NC(=O)/C(=C/C=C/c3ccco3)S2)c1 | inconclusive: 18.4 µM [activator, single point]
CC(NC(=O)c1cc(S(=O)(=O)N(C)C)ccc1N1CCCC1)C1CC2CCC1C2 (stereo unspecified) | inconclusive: 23.1 µM [activator, single point]
COc1ccc(C)cc1N(C(=O)c1snc(C(N)=O)c1N)C(C(=O)NC1CCCC1)c1ccc(F)cc1 (stereo unspecified) | inconclusive: 25.9 µM [activator, single point]
CC(C)(C)OC(=O)NCc1ccc(NC(=O)c2nc[nH]c2C(=O)NCCNC(=O)c2[nH]cnc2C(=O)Nc2ccc(CNC(=O)OC(C)(C)C)cc2)cc1 | inconclusive: 29.1 µM [activator, single point]
CCOc1ccc(/C=C2/Sc3ccc(C(=O)N4CCOCC4)cc3N(C)C2=O)cc1OC | inconclusive: 29.1 µM [activator, single point]
Nc1c(C(=O)NCc2ccco2)c2nc3ccccc3nc2n1CCc1ccc(F)cc1 | active: 5.8 µM
O=C(NC(Cc1ccccc1)C(=O)O)C1CCCCC1 (stereo unspecified) | inconclusive: 5.17 µM [activator, single point]
CCCOc1ccc(C(=O)Nc2ccc(S(=O)(=O)N3C[C@@H]4C[C@@H](C3)c3cccc(=O)n3C4)cc2)cc1 | inactive
CN1CCCC2(CCCN(Cc3nc(Cc4cccc(C(F)(F)F)c4)no3)C2)C1 (stereo unspecified) | inconclusive: 0.631 µM [activator, partial curve, poor fit]
O=C(c1cccc(Cl)c1)N1CCCc2ccccc21 | inactive
O=S(=O)(/C=C/C=C/S(=O)(=O)c1ccccc1)c1ccccc1 | inconclusive: 18.4 µM [activator, partial curve, poor fit]
Cc1ccc(S(=O)(=O)N2CCOCC2)cc1C(=O)OC(C)C(=O)c1ccccc1 (stereo unspecified) | inconclusive: 29.1 µM [activator, partial curve, poor fit]
Cc1nn(-c2ccc(F)cc2)c(C)c1NS(=O)(=O)c1ccc(Cl)cc1 | inconclusive: 6.31 µM [activator, single point]
CN(C)/C=C(\C#N)c1nc2ccccc2[nH]1 | inactive
NS(=O)(=O)c1ccc(NC(=O)/C=C/c2ccc3c(c2)OCO3)cc1 | active: 6.51 µM
CCOC(=O)Cn1c(=NC(=O)c2ccc([N+](=O)[O-])s2)sc2ccccc21 | inconclusive: 1.64 µM [activator, full curve, poor fit]
N#CC(C#N)=Cc1cccn1-c1ccc(S(N)(=O)=O)cc1 | inconclusive: 16.4 µM [activator, single point]
NNC(=O)c1oc2ccccc2c1-n1cccc1 | inconclusive: 29.1 µM [activator, single point]
CC(C)(C)c1ccc(N=C2SCC(=O)N2Cc2cccs2)cc1 | inconclusive: 1.84 µM [activator, partial curve, poor fit]
O=C1C=C(Nc2ccc(F)cc2)c2ccccc2C1=O | active: 9.2 µM

Of the compounds above, three contain a CF3 group:
SMILES | Potency
CC(=O)C1=C(C)N(c2ccccc2)C(=O)C1(NS(=O)(=O)c1ccc(N)cc1)C(F)(F)F (stereo unspecified) | inconclusive: 2.31 µM [activator, full curve]
C[C@H](CO)N1C[C@H](C)[C@@H](CN(C)C(=O)Nc2ccc(C(F)(F)F)cc2)Oc2c(NS(=O)(=O)c3cccs3)cccc2C1=O | inactive
CN1CCCC2(CCCN(Cc3nc(Cc4cccc(C(F)(F)F)c4)no3)C2)C1 (stereo unspecified) | inconclusive: 0.631 µM [activator, partial curve, poor fit]

3 compounds out of the list, ordered by length of the SMILES, low to high:
SMILES | Potency
NS(=O)(=O)c1ccc(NC(=O)/C=C/c2ccc3c(c2)OCO3)cc1 | active: 6.51 µM
Nc1c(C(=O)NCc2ccco2)c2nc3ccccc3nc2n1CCc1ccc(F)cc1 | active: 5.8 µM
CC(=O)C1=C(C)N(c2ccccc2)C(=O)C1(NS(=O)(=O)c1ccc(N)cc1)C(F)(F)F (stereo unspecified) | inconclusive: 2.31 µM [activator, full curve]

Next structures:

SMILES | Potency
CN(C)S(=O)(=O)c1ccc(C(=O)Nc2nnc(-c3ccco3)o2)cc1 | inconclusive: 18.4 µM [activator, single point]
C/C(=N\Nc1ccccn1)c1ccc(S(=O)(=O)NCc2ccco2)cc1 | inactive
O=C(NNC(=O)C1CCN(Cc2ccc(F)cc2Cl)CC1)Nc1ccc([N+](=O)[O-])cc1 | inconclusive: 20.6 µM [activator, partial curve, poor fit]
CC1CCN(C(=O)c2[nH]cnc2C(=O)N[C@H](C)c2ccccc2)CC1 | inconclusive: 2.91 µM [activator, partial curve, poor fit]
CCN(Cc1ccncc1)C(=O)c1ccc2c(c1)S(=O)(=O)c1ccccc1C2=O | inconclusive: 0.058 µM [activator, full curve, poor fit]
CCOc1ccc(CCNC(=O)COC(=O)c2cccc(S(=O)(=O)N3CCCCC3)c2)cc1OCC | inconclusive: 0.184 µM [activator, full curve, poor fit]
O=C(COC(=O)c1ccc(S(=O)(=O)Nc2ccccc2)cc1)NC1CCCC1 | inactive
Cc1c(C(=O)Oc2cccc3cccnc23)cccc1[N+](=O)[O-] | inconclusive: 13 µM [activator, partial curve]
Cc1c(NC(=O)CN2c3ccccc3CC2C)c(=O)n(-c2ccccc2)n1C (stereo unspecified) | inconclusive: 29.1 µM [activator, single point]
COc1ccc(NCC(=O)n2c(C)c(C)c3ccccc32)cc1 | inconclusive: 20.6 µM [activator, single point]
CN1CCc2c(sc3c2C(=O)NC(c2cn(Cc4ccccc4)c4ccccc24)N3)C1 (stereo unspecified) | inconclusive: 18.4 µM [activator, single point]
CC(=O)OCC1OC(n2cc(F)c(=O)[nH]c2=O)C(OC(C)=O)C1OC(C)=O (stereo unspecified) | inconclusive: 18.4 µM [activator, partial curve, poor fit]
CC(O)C1CCC2C3CCC4CC(O)CCC4(C)C3CCC12C (stereo unspecified) | inactive
FC(F)(F)c1cccc(Cn2nnnc2-c2ccc(Cl)cc2)c1 | inactive
CC[C@]12c3[nH]c4cc(CCC(=O)N(C)C)ccc4c3CCN1C(=O)[C@@H](CC(=O)NC/C=C(\C)CCC=C(C)C)C[C@@H]2C(=O)N1CCN(C(=O)c2ccco2)CC1 | inconclusive: 20.6 µM [activator, single point]
Nc1ccc(N2CCN(c3ccc(F)cc3)CC2)cc1 | inconclusive: 18.4 µM [activator, single point]
CCOc1ccc2cc(/C=C/C(=O)c3ccco3)c(Cl)nc2c1 | active: 16.4 µM
CCOC(=O)c1ccc(Nc2ccc([N+](=O)[O-])cn2)cc1 | inconclusive: 6.51 µM [activator, single point]
O=C(c1cc(-c2ccncc2)nc2ccc(Cl)cc12)N1CCN(Cc2ccc3c(c2)OCO3)CC1 | inconclusive: 18.4 µM [activator, single point]
